Earlier results in patent US20170049679A1, “ORAL AND DENTAL HYGIENE AND CLEANING AGENTS FOR REDUCING TOOTH DISCOLORATION” (Henkel AG & Co. KGaA, priority 2014, published 2017).
Some entries share one result that the patent states for a list of compounds. At least one compound was matched to its structure with a doubt left.

Conditions: 20° C. water temperature

Compound	solubility in water (organic zinc salts, insoluble / soluble group)
CCCCCCCCCCCC(=O)[O-].CCCCCCCCCCCC(=O)[O-].[Zn+2] [zinc laureate]	below 100 mg/L
Zinc acetylacetonate	above 100 mg/L
